# Among all 320,000 compounds or so, about 22,000 (6.9%) were called active. This list was built around the results that the source calls inconclusive (neither active nor inactive); the mix of calls is not that of the screen. The call rests on the fitted dose curve; in most records, active means well fitted inhibition curve with a large enough effect; inconclusive means small, poorly fitted or top-dose-only effect, or another doubt; inactive means no such curve, though single readings can be large or run the other way. Potencies beside an inconclusive call are fits to weak or partial responses and may not hold up.
# Experiment: Primary qHTS for delayed death inhibitors of the malarial parasite plastid, 96 hour incubation
# Conditions: P. falciparum luciferase reporter growth; series mostly up to 28.7 µM
# In short: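 Infected RBCs, 2% Hct / 0.05% parasitemia final; luciferase-reporter P. falciparum; cpd 96 h, 37 C, 5% CO2; luciferase detection reagent; luminescence.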
# On the % scale 0 is the no-effect control and ±100 the full control effect; potency means the concentration at half of the fitted maximal effect.
Structure (SMILES),Potency,"activity change, negative = inhibition"
O=C(Nc1ccc(OCC(=O)N2CCOCC2)cc1)c1ccccc1Cl,"inconclusive: 11.7 µM [inhibitor, single point]",–
N=c1c2c(ncn1CCCO)Oc1cc(O)ccc1C2c1ccccc1 (stereo not drawn),"inconclusive: 3.29 µM [inhibitor, partial curve, poor fit]",–
COC(=O)c1c(SCC(=O)NC2CCCCC2)[nH]c2ccccc2c1=O,"inconclusive: 18.5 µM [inhibitor, single point]",–
COc1ccc(-n2nc(C(=O)NCC(=O)NCCCN3CCN(C)CC3)c3ccccc3c2=O)cc1,"inconclusive: 18.5 µM [inhibitor, partial curve, poor fit]",–
NC(=O)Nc1ccc(C(=O)OCC(=O)Nc2ccc(Cl)cc2C(=O)c2ccccc2)cc1,inactive,–
COc1ccc(C(=O)c2c3ccc(C(F)(F)F)cc3[n+]([O-])n2CCCN)cc1,"inconclusive: 11.7 µM [inhibitor, single point]",–
CCC1CCc2c([nH]c3ccccc3c2=O)O1 (stereo not drawn),active: 2.33 µM,–
CC(=O)Nc1ccc(S(=O)(=O)N2CCC(=O)Nc3ccccc32)cc1,"inconclusive: 1.17 µM [inhibitor, single point]",–
Cc1cc(N/N=C/c2ccncc2)nc2ccccc12,"inconclusive: 1.65 µM [inhibitor, full curve, poor fit]",–
Cc1ccccc1NC(=O)Cc1nc(COC(=O)c2ccc(O)cc2O)cs1,"inconclusive: 6.57 µM [inhibitor, partial curve]",–
O=C(Nc1cccc(S(=O)(=O)N2CCCC2)c1)c1cccnc1,inactive,–
COc1ccccc1NC(=O)COc1ccc(C(=O)NC2CCCc3ccccc32)cc1OC (stereo not drawn),"inconclusive: 1.65 µM [inhibitor, full curve, poor fit]",–
Cc1c(NS(=O)(=O)c2cccc(C(=O)OCC(=O)N(C)C3CCCCC3)c2)c(=O)n(-c2ccccc2)n1C,"inconclusive: 4.15 µM [inhibitor, full curve, poor fit]",–
CCCN1CN(Cc2ccccc2)CNC1=S,"inconclusive: 10.4 µM [inhibitor, single point]",–
CCOC(=O)N1CCC(c2cc(=O)n3[nH]cc(C(=O)OC)c3n2)CC1,"inconclusive: 0.465 µM [inhibitor, full curve, poor fit]",–
Cc1cccc2nc(CSc3nc4cc([N+](=O)[O-])ccc4s3)cn12,"inconclusive: 4.15 µM [inhibitor, partial curve, poor fit]",–
CC12CCC(C(=O)OC3CCCCC3)(OC1=O)C2(C)C (stereo not drawn),active: 11.7 µM,–
COc1cccc(CC(=O)Nc2cc(S(=O)(=O)N3CCOCC3)ccc2N2CCN(C)CC2)c1,"inconclusive: 11.7 µM [inhibitor, single point]",–
CCOCC(O)CNC(=O)c1ccc2nc(Cc3ccc(OC)c(OC)c3)oc2c1 (stereo not drawn),inactive,–
Cc1ccc(C2CC2C(=O)NNC(=S)Nc2ccc(Cl)cc2)cc1 (stereo not drawn),"inconclusive: 18.5 µM [inhibitor, single point]",–
CCCCCN(C(=O)CSc1n[nH]c(-c2ccc(C)cc2)n1)c1c(N)n(CCCC)c(=O)[nH]c1=O,"inconclusive: 20.8 µM [inhibitor, single point]",–
O=C(c1ccccc1Cl)N1CCNCC1,"inconclusive: 18.5 µM [inhibitor, single point]",–
Cc1nnc(SCC(=O)Nc2c(C)n(C)n(-c3ccccc3)c2=O)n1Cc1ccccc1,inactive,–

Structure (SMILES),Potency,"activity change, negative = inhibition"
COC(=O)c1ccc(-c2noc(CN(C)CC3CCCCO3)n2)cc1 (stereo not drawn),"inconclusive: 10.4 µM [inhibitor, single point]",–
Cc1nn(CC(=O)NCCCN2CCC(N3CCCCC3)CC2)c(=O)c2cc(-c3ccccc3)nn12,"inconclusive: 18.5 µM [inhibitor, single point]",–
COc1cccc(N2CCN(C(=O)c3ccc(CS(=O)Cc4ccccc4Cl)o3)CC2)c1 (stereo not drawn),"inconclusive: 3.29 µM [inhibitor, full curve, poor fit]",–
Cc1ccc(C2(C)NC(=O)N(CC(=O)N3CCN(S(=O)(=O)c4ccc(Cl)s4)CC3)C2=O)cc1 (stereo not drawn),"inconclusive: 10.4 µM [inhibitor, single point]",–
O=[N+]([O-])c1c(NCCCO)cc(SCc2ccco2)c2nonc12,"inconclusive: 10.4 µM [inhibitor, partial curve, poor fit]",–
COc1ccccc1-c1ccc(SCc2cccc(C)c2)nn1,active: 11.7 µM,–
O=C(N/N=C/C=C/c1ccccc1)c1ccccc1Br,inactive,–
O=C(c1ccc(C(F)(F)F)cc1)C1CCCN(C(=O)c2csnn2)C1 (stereo not drawn),"inconclusive: 0.465 µM [inhibitor, full curve, poor fit]",–
CS(=O)(=O)c1ccccc1C(=O)Nc1cccc2ncccc12,"inconclusive: 2.62 µM [inhibitor, partial curve]",–
O=C(NCc1cccnc1)c1nc(-c2ccc(C(F)(F)F)cc2)no1,inactive,–
Cc1cc2c(c(=O)n1-c1ccccc1)C1O[C@](c3ccsc3)(Cc3cc(C#N)ccc31)O2,–,inactive: -49% [at 5.75 µM]
O=C(c1cccc2ccccc12)C1CCCN(C2CCC2)C1 (stereo not drawn),"inconclusive: 3.7 µM [inhibitor, partial curve]",–
O=C1c2ccccc2C(=O)N1c1cccc(-c2csc(Nc3ccc4c(c3)OCO4)n2)c1,active: 10.4 µM,–
CCOc1ccc(C(CC(=O)O)NC(=O)CCCOc2ccc(Cl)cc2C)cc1 (stereo not drawn),"inconclusive: 6.57 µM [inhibitor, partial curve, poor fit]",–
O=C(O)CC1NC(=O)N(C2CCCCC2)C1=O (stereo not drawn),active: 11.7 µM,–
COc1ccc(S(=O)(=O)CCc2nnc(NC(=O)c3ccc(F)cc3)s2)cc1,inactive,–
COc1ccc(-c2nc(NC(=O)c3[nH]c(C)c(C(C)=O)c3C)sc2C)cc1,"inconclusive: 11.7 µM [inhibitor, single point]",–
CCOC(=O)c1c(S(=O)(=O)N2CCCC(C(=O)Nc3ccc(C)cn3)C2)c(C)n(C)c1C (stereo not drawn),inactive,–
CCCNC(=O)c1ccc(CNc2c(N3CCC(C(=O)OCC)CC3)c(=O)c2=O)cc1,inactive,–
CC(C)c1nc(C#N)c(NN)o1,inactive,–
CC1CC(=O)C2=C(C1)Nc1ccccc1SC2c1ccc(F)cc1 (stereo not drawn),active: 4.15 µM,–
COc1ccc(CSc2n[nH]c(C)n2)cc1[N+](=O)[O-],"inconclusive: 18.5 µM [inhibitor, single point]",–
CCOC(=O)C1(CCOc2ccccc2)CCN(CC2CC2)CC1,"inconclusive: 5.22 µM [inhibitor, single point]",–

# Part of the list above in a different format.
Structure (SMILES)	Potency	activity change, negative = inhibition
O=C(Nc1ccc(OCC(=O)N2CCOCC2)cc1)c1ccccc1Cl	inconclusive: 11.7 µM [inhibitor, single point]	–
COC(=O)c1c(SCC(=O)NC2CCCCC2)[nH]c2ccccc2c1=O	inconclusive: 18.5 µM [inhibitor, single point]	–
CCC1CCc2c([nH]c3ccccc3c2=O)O1 (stereo not drawn)	active: 2.33 µM	–
COc1ccccc1NC(=O)COc1ccc(C(=O)NC2CCCc3ccccc32)cc1OC (stereo not drawn)	inconclusive: 1.65 µM [inhibitor, full curve, poor fit]	–

# The results go on:

Structure (SMILES),Potency,"activity change, negative = inhibition"
CCC(=O)NNC(=O)CCC(=O)Nc1ccc(C)cc1C,"inconclusive: 7.38 µM [inhibitor, partial curve]",–
COCCNC(=O)c1cccc(NC(=O)C2=C(C)OCCS2)c1,"inconclusive: 8.28 µM [inhibitor, partial curve, poor fit]",–
CCC(c1nnnn1Cc1cccs1)N1CCN(c2nc3ccccc3s2)CC1 (stereo not drawn),"inconclusive: 14.7 µM [inhibitor, single point]",–
O=C(c1ccc(Cl)cc1)c1c[nH]c(C(=O)NNc2ccccc2)c1,inactive,–
CC(=O)c1ccc(NC(=O)C2CCN(S(=O)(=O)c3ccc4c(c3)N(C(C)=O)CCO4)CC2)cc1,"inconclusive: 20.8 µM [inhibitor, partial curve, poor fit]",–
CCOC(=O)/C(=N\Nc1ccc(Cl)cc1)c1csc(Nc2ccccc2)n1,"inconclusive: 18.5 µM [inhibitor, single point]",–
CCc1cccc(CC)c1NC(=S)Nc1cccc(Cl)c1Cl,"inconclusive: 18.5 µM [inhibitor, single point]",–
O=C(C1CCN(S(=O)(=O)c2ccccc2)CC1)N1CCCCCC1,"inconclusive: 10.4 µM [inhibitor, single point]",–
CCSc1cc(C)nc2c(-c3ccccc3)cnn12,inactive,–
CCCC(c1nnnn1CCOC)N1CCN(c2cccc(OC)c2)CC1 (stereo not drawn),inactive,–
O=C(NNS(=O)(=O)c1ccc(F)cc1)c1ccccc1,"inconclusive: 18.5 µM [inhibitor, single point]",–
c1ccc(-c2nnc(CSc3nnc(-c4cccs4)o3)o2)cc1,inactive,–
O=C(CNC(=O)N1CC(=O)Nc2ccccc21)NCc1cccc(Cl)c1,"inconclusive: 13.1 µM [inhibitor, partial curve, poor fit]",–
Cc1ccc(S(=O)(=O)Nc2cc(C(C)C)c(O)cc2C)cc1,"inconclusive: 0.294 µM [inhibitor, full curve, poor fit]",–
COc1ccc(C(=O)NNC(=O)Nc2ccc(C)cc2)cc1,inactive,–
COc1ccc(Nc2nc(N)nc(SCc3nnc(C)s3)n2)cc1,"inconclusive: 10.4 µM [inhibitor, single point]",–
COc1ccccc1OCC(=O)Nc1c2c(nn1-c1ccc(F)cc1)CS(=O)(=O)C2,"inconclusive: 14.7 µM [inhibitor, partial curve]",–
COc1ccc(-c2cn3cccnc3n2)cc1NC(=O)c1ccc(Br)o1,active: 10.4 µM,–
CC(C)CC(NC(=O)OC(C)(C)C)c1cn([C@@H](CCC(=O)OC(C)(C)C)C(=O)N2CCN(C(=O)OC(C)(C)C)CC2)nn1 (stereo partly drawn),active: 10.4 µM,–
Cc1ccc(-c2nnc(SCC(=O)N3CCOCC3)nc2-c2ccc(C)cc2)cc1,"inconclusive: 16.5 µM [inhibitor, partial curve, poor fit]",–
COc1ccccc1-n1c(SCC(=O)N2CCCC2)nnc1-c1ccccc1,inactive,–
CCc1ccc(-c2nn(-c3ccccc3)cc2C2SCC(=O)N2Cc2ccco2)cc1 (stereo not drawn),inactive,–

# Reference: PubChem BioAssay AID504834 (National Center for Advancing Translational Sciences (NCATS), 2011)
